This passage reports binding results from publication doi:10.1101/2021.03.03.433707.

Results are given in words; binding and its absence hold for the method and conditions named. Binding can be weak; no strength is given.

The assay concerns the target T1, MukB long hinge (LH, 568-863) (E. coli) (UniProt P22523).
T1 sequence: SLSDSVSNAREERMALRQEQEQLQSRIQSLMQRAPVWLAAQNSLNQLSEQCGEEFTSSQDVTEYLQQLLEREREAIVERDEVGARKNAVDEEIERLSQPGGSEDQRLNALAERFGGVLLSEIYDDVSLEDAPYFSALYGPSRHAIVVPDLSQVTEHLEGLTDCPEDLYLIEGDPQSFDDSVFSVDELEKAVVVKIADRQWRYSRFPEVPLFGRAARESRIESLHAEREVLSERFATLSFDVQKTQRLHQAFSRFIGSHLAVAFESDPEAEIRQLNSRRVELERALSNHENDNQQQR
Description: SEC.

As to “MBP-ParC^CTD (ParC C-terminal domain with N-terminal MBP fusion) (E. coli) (domain or fragment)”, the binding entry is reported as “binds”.
